Experimental data: article PMC10313831
Construct, isoform or probe ends are uncertain for at least one entry. At least one verdict was read from the data and is not stated in words by the source.

Chains of the proteins cited; added tags and fusions are not shown. Chains listed by the source or under a name are the forms on record and can include a tag or linker.
RPA (Rfa1-Rfa2-Rfa3) (Saccharomyces cerevisiae), one chain, as listed by the source, chain 2 of 3: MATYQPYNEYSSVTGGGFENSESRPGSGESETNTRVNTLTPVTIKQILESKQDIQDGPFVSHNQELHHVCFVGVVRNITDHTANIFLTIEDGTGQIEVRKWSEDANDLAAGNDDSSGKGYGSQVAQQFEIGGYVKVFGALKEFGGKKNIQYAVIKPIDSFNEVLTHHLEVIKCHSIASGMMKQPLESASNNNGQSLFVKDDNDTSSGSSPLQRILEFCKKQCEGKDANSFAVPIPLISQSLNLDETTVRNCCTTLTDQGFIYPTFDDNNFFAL
RPA (Rfa1-Rfa2-Rfa3) (Saccharomyces cerevisiae), one chain, as listed by the source, chain 1 of 3: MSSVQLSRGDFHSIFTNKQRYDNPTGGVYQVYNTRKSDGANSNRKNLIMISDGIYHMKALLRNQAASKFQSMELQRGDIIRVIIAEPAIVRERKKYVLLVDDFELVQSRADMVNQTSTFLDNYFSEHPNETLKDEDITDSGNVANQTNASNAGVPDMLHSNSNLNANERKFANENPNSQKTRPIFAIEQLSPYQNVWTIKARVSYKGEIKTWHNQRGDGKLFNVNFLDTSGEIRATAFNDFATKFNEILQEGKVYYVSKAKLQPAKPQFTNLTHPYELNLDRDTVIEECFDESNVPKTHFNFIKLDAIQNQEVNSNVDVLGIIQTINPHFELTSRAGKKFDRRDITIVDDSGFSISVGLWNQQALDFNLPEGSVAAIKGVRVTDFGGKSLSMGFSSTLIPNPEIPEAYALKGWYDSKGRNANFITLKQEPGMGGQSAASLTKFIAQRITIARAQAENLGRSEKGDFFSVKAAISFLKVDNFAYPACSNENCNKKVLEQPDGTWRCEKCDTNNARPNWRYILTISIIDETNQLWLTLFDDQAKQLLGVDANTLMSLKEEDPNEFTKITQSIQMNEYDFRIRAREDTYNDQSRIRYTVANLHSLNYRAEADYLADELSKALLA
RPA (Rfa1-Rfa2-Rfa3) (Saccharomyces cerevisiae), one chain, as listed by the source, chain 3 of 3: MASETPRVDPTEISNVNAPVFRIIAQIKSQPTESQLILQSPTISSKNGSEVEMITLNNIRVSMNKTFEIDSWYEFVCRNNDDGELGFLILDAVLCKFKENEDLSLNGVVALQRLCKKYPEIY

System: RPA (Rfa1-Rfa2-Rfa3) (Saccharomyces cerevisiae)
Assay: EMSA
Conditions: EMSA: 20 mM Tris-HCl pH 7.5, 150 (or 15) mM KCl, 1 mM DTT, 100 ug/mL BSA, 5 nM DNA, 30 C 10 min, recombinant protein, protein details: His tag (MST: His-tagged RPA, RED-tris-NTA dye), single-stranded DNA
[1] = 15 mM KCl, similar to 150 mM, label: 5'-32P

TTTTTTTTTTTTTTTTTTTT [dT(20)]: binds [1].
TTTTTTTTTTTTTTTTTTTTTTTTTTTTTT [dT(30)]: binds (15 mM KCl, similar to 150 mM, label: 5'-32P (EMSA), unlabeled (MST)).
“TTTTTTTTTTTTTTTTTTTTTTTTTTTTTTTTTTTTTT [dT(38)]”: binds (below 40-nt minimum for second RPA, label: 5'-32P).
“TTTTTTTTTTTTTTTTTTTTTTTTTTTTTTTTTTTTTTTT [dT(40)]”: binds [1].
“TTTTTTTTTTTTTTTTTTTTTTTTTTTTTTTTTTTTTTTTTTTTTTTTTT [dT(50)]”: binds [1].
“TTTTTTTTTTTTTTTTTTTTTTTTTTTTTTTTTTTTTTTTTTTTTTTTTTTT [dT(52)]”: binds (below 54-nt minimum for third RPA, label: 5'-32P).
“TTTTTTTTTTTTTTTTTTTTTTTTTTTTTTTTTTTTTTTTTTTTTTTTTTTTTTTTTTTT [dT(60)]”: binds [1].
